Values quoted from earlier work, collected in US4767761A, “Ornithine derivatives and their use as methotrexate-resistant cell inhibitors” (priority 1987, dated 1988).
At least one structure is not confirmed: it was looked up by name or label, or the drawing left a doubt.

Tested on: mouse liver FPGS
Settings: footnote c, Table 1; see Moran et al.; cited from earlier work

Nc1nc(N)c2nc(CNc3ccc(C(=O)N[C@@H](CCC(=O)O)C(=O)O)cc3)cnc2n1 [Aminopterin, reference compound]
substrate for mouse liver FPGS: substrates
